Hit rate of the full screen: of about 330,000 compounds, about 1,000 (0.3%) were called active. Inconclusive results, whose numbers are uncertain, are shown with a selection of clear calls. The call rests on the fitted dose curve; in most records, active means well fitted inhibition curve with a large enough effect; inconclusive means small, poorly fitted or top-dose-only effect; inactive means no such curve, though single readings can be large or run the other way; tested in mouse RAW 264.7 cells. Where the call is inconclusive, the potency comes from a doubtful curve fit.
Assay: qHTS for Inhibitors of Cell Surface uPA Generation; further: nearly all actives have a fitted effect of over 55% in size
Details: cell surface uPA generation assay; series mostly up to 38.3 µM; activity change, negative = inhibition: at the top concentration
How it was run: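 Murine RAW 264.7 cells are treated for 24 h with compound up to 38.3 uM final. Cell ATP, measured by ATP-Lite, remains high if blocking the uPA cascade prevents LF from reaching the cytoplasm.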
On the % scale 0 is the no-effect control and ±100 the full control effect; potency means the concentration at half of the fitted maximal effect.

| Structure (SMILES) | Potency | activity change, negative = inhibition |
| --- | --- | --- |
| COc1ccc(/C=C/C(=O)c2ccc([N+](=O)[O-])o2)cc1OC | active: 2.51 µM | – |
| O=C(O)Cn1cc(F)c(=O)[nH]c1=O | inconclusive: 11.2 µM [inhibitor, single point] | – |
| CC(C)C(=O)Nc1ccc(Nc2ccccc2)cc1 | – | inactive: -6.41% |
| CNCC(O)c1ccc(O)c(O)c1 (centres undefined) | inconclusive: 5.62 µM [inhibitor, partial curve, poor fit] | – |
| COc1ccc(S(=O)(=O)N2CCOCC2)cc1NC(=O)c1cccs1 | inconclusive: 28.2 µM [inhibitor, single point] | – |
| CC(C)Oc1ccc(C(=O)Nc2ccc(N(C)C)cc2)cc1 | inconclusive: 3.55 µM [inhibitor, partial curve, poor fit] | – |
| CC(C)C[C@H](NC(=O)c1nc[nH]c1C(=O)NCC(=O)OCc1ccccc1)C(=O)OC(C)(C)C | inconclusive: 0.794 µM [inhibitor, full curve] | – |
| CC1(CCC(=O)N2CCCC(N3CCN(c4cccc(C(F)(F)F)c4)CC3)C2)CC1 (centres undefined) | inconclusive: 28.2 µM [inhibitor, single point] | – |
| Cc1ccc(NC(=O)/C=C/c2ccco2)cc1S(=O)(=O)N1CCCCCC1 | active: 0.891 µM | – |
| COc1ccc(C=Nc2cccc3ncccc23)cc1 | inconclusive: 10 µM [inhibitor, partial curve, poor fit] | – |
| COCc1nnc(NC(=O)c2ccc(S(=O)(=O)N(C)c3ccccc3)cc2)o1 | inconclusive: 25.1 µM [inhibitor, single point] | – |
| COC(C(=O)Nc1ccnn1C1CCN(Cc2nccs2)CC1)c1ccccc1 (centres undefined) | inconclusive: 2.82 µM [inhibitor, single point] | – |
| COc1cccc2c(N/N=C/c3ccccc3)cc(C)nc12 | inconclusive: 1.41 µM [inhibitor, full curve, poor fit] | – |
| CS(=O)(=O)N1CCN(c2ccc(NC(=O)c3ccc([N+](=O)[O-])o3)cc2)CC1 | inconclusive: 3.98 µM [inhibitor, partial curve, poor fit] | – |
| Cc1ccc(S(=O)(=O)c2cc3c(=O)n4ccccc4nc3n(Cc3ccco3)c2=N)cc1C | – | inactive: -1.75% |
| C/C(=N\NC(=O)c1cc2c(s1)CCC(C)C2)c1ccncc1 (centres undefined) | – | inactive: -1.67% |
| N#Cc1ccccc1Oc1ccccc1C=O | inconclusive: 12.6 µM [inhibitor, single point] | – |
| CCOc1ccc(S(=O)(=O)n2cnc3cc(C)c(C)cc32)cc1 | inconclusive: 3.55 µM [inhibitor, partial curve, poor fit] | – |
| COc1ccc(N2CCN(C(=O)c3ccc(-c4ccccc4)cc3)CC2)cc1 | inconclusive: 3.16 µM [inhibitor, single point] | – |

Given field by field: part of the list above
CC(C)Oc1ccc(C(=O)Nc2ccc(N(C)C)cc2)cc1
  Potency: inconclusive: 3.55 µM [inhibitor, partial curve, poor fit]
CC(C)C[C@H](NC(=O)c1nc[nH]c1C(=O)NCC(=O)OCc1ccccc1)C(=O)OC(C)(C)C
  Potency: inconclusive: 0.794 µM [inhibitor, full curve]
